The results in this text go back to publication PMC7133447.

Amino acid sequences for entries named in this document (tags omitted).
UniProt Q62351, whole entry: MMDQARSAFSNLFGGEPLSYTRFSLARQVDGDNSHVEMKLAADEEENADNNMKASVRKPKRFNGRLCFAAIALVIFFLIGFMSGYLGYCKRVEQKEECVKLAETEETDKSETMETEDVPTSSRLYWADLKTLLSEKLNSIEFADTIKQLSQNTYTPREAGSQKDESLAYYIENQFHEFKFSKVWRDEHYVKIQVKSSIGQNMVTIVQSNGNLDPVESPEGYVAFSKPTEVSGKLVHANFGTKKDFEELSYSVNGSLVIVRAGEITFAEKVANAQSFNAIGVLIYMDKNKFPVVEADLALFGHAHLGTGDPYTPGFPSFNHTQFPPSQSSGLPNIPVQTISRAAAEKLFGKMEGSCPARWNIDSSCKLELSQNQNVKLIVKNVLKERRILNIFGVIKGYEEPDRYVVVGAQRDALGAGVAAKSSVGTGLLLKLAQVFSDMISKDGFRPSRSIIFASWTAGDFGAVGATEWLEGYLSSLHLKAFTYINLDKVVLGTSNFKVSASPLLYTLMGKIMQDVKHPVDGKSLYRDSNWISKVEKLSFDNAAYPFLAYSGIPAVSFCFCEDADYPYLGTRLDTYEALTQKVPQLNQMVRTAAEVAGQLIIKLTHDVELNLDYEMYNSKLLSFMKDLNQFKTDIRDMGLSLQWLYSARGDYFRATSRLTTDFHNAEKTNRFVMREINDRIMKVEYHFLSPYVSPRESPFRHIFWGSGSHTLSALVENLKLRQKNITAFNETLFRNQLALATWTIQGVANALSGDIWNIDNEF

The exact form of at least one protein or probe is not confirmed. At least one result comes from cells or an extract, where the contact may be indirect. Negatives hold for the conditions tested.

This data set deals with transferrin receptor (TfR) / EpCAM on 4T1 cells (mouse) (UniProt Q62351). Description: flow cytometry (4T1 cells). Conditions: Live-cell flow cytometry, 5e5 cells, 0-400 nM aptamer, PBS with 10% FCS, 0.1 mg/mL tRNA, 0.1 mg/mL BSA, 60 min, 37 C; aptamer folded in PBS with 5 mM MgCl2; protein on the cell surface; label: 3' TYE665; folded or branched DNA. Background: Flow cytometry measures light scatter and fluorescence of single cells or particles in a stream.

Turning to “GCGCGTGCACGCGCTAACGGATTCCTTTTCCGT [TENN]”, the binding result was “no binding”.
